From patent publication US8507540B2, “Oxazolidinone derivatives containing new bicyclic group, having antibacterial activity, and method for treating pathogenic bacterial infections using the same” (Korean Institute of Science and Technology, priority 2011, dated 2013)
For at least one compound, name, drawing or mass did not settle the structure.

Tested on: Mycobacterium tuberculosis (Mtb) H37Rv
Assay: In vitro antituberculous activity test, Microplate Alamar Blue Assay
Type: cell-based
Conditions: versus linezolid

For `N#CC1=CC2CN(c3ccc(N4C[C@H](Cn5ccnn5)OC4=O)cc3F)CC2C1` (stereo partly drawn) [Example 9, (5R)-3-[4-(5-cyano-3,3a,4,6a-tetrahydro-1H-cyclopenta[c]pyrrol-2-yl)-3-fluorophenyl]-5-(1,2,3-triazol-1-ylmethyl)oxazolidin-2-one], the “antituberculous activity compared to linezolid” value was “antibacterial effects equivalent to linezolid”.
